30 sequences from PubChem BioAssay AID1508600 (Functional Genomics Laboratory (NCATS/FGL), 2020) can be followed below.

Screen size: about 53,000 sequences; about 3,700 (7%) were called active.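 Rule for the calls: active = gene knockdowns whose robust z-score for IL-1 alpha signal is at least 2 or at most -2, so actives lie on both sides; inactive = the rest.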 Some of the results follow.

The assay is described as follows: Components of the Cytosolic LPS Sensing Pathway: Gene Identification via Genome-wide siRNA Screen.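 Note: robust z of the log signal after scaling to non-targeting control siRNA wells of the plate.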 The settings on record: RAW264.7 macrophages, IL-1a HTRF, actives lie on both sides, screened at 100 nM (by protocol), cells primed 5 h with Pam3CSK4 first. The gist of the method: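 RAW264.7; siRNA 100 nM final, RNAiMAX, 48h 37 degrees C; Pam3CSK4 5 h; LipidA + TransIT-TKO 24 h; IL-1a HTRF; CellTiter-Glo viability; robust z vs negative-control median.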
(In general: TR-FRET usually uses a lanthanide donor and a delayed reading to cut background.)
GGCCCUGGUUUCAUUAGGATT against Gab3: the z-score was inactive: -1.05.
On to GGGUCUUGCCUACUUGCAUTT against Map4k5, for which the z-score is inactive: -1.98.
For CCUGGUACAAGAGGAGUUUTT against Myg1, the z-score was inactive: 1.18.
As for CCCAGCUCUUAUGUUUACCTT against Ap4b1, the z-score is inactive: -0.399.
For GGAGCUUUCUCAAGAUUCATT against Arid1a the value was inactive: 0.263; for GGUGCAGUUGAAAGAACUCTT against Hoxa13, inactive: 0.501.
Consider GGCCCAGUUGAUCAGCUAUTT against Syne4, for which the z-score is inactive: 0.411.
For the sequence GCCCUGAUGGACGAAUGAUTT against Dcaf10, the z-score was inactive: -0.555.
As to GGACUUUUUCAAAGGUUUUTT against Eif4g3, the z-score is active: 2.37.
In the case of GGAAUUUCACCUAAAUUGATT against Blzf1, the z-score is inactive: -1.06.
For the sequence GCUGUGAACCUAGAGCGUGTT against Taco1, the z-score is inactive: -0.241.
For GGAAUCGCUAUUUCUGAUATT against Sgk3, the z-score was inactive: 0.192.
In the case of GGUAUGACUUGCUCUUUAUTT against Rnpep, the z-score was inactive: -0.881.
To GGACAGCCGUGUAGUAACCTT against Cpne1 belongs inactive: -0.421.
GCUCUUCCGAUUAAUGCAGTT against Gabra6: the z-score is active: 2.87.
For GGCUGGUGUAAAAGACACGTT against Nat14 the value was inactive: 0.142; for CCGGAGAUGUAAAUGCAAATT against Arl4d, inactive: 1.55.
As for GCGAUUACACCACAAACCATT against Cth, the z-score is inactive: -1.67.
To GGAUCUUUACAUCUCUAACTT against Krtap31-1 belongs inactive: 1.58.
On to GGCUUGGACAAUCUUAGUATT against Epdr1, for which the z-score was inactive: 0.0196.
Consider CGGCCAACUUGCUCAAUGATT against Cnnm2, for which the z-score was inactive: 0.0888.
To GGAGGUUGGGAUGAAUUAUTT against Rab6b belongs active: 4.26; to GAUUGGCAAUUGUGGCCAUTT against Defb4, inactive: 1.1.
As for GCUAACUGAUACAUUAGAATT against Trim59, the z-score was inactive: 0.972.
To GGCAGACAAUGCAGUUAACTT against Atp8a2 belongs inactive: 1.01.
As for GGUGCUGUCCAUGGUGAAGTT against St8sia5, the z-score was inactive: -1.33.
To GGGCUUGUCUAGCCAUGCATT against Wiz belongs inactive: -1.13.
To GGAACUUUAUAGUUAGUGCTT against Srsf6 belongs inactive: -0.176; to GCUAACCAUAAGUCUGUUUTT against Trim16, inactive: 1.16.
Consider GGCAGUUUUGGGAUUGUUUTT against E4f1, for which the z-score was inactive: 0.627.
